Among the data in article PMC8270905, “Structural basis of LAIR1 targeting by polymorphic Plasmodium RIFINs” (Nature Communications, 2021) are binding values, retold here.

Results are given in words; binding and its absence hold for the method and conditions named. In cells and extracts the contact can be indirect. Binding can be weak; no strength is given.

The target in experiment [1] is T1, RIFIN (PF3D7_0401300) V2 domain, as crystallised with MGD21 LAIR1 (Plasmodium falciparum 3D7) (UniProt Q8I211).
T1 sequence: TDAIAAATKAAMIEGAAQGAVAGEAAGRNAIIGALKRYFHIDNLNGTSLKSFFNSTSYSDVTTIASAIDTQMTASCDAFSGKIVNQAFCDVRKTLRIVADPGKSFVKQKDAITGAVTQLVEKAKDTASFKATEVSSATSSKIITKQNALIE
As to the kind of experiment: crystal structure; complex co-expressed and co-purified, tags removed with HRV3C, SEC in 5 mM HEPES pH 7.5, 150 mM NaCl; both purified.

Experiment [2] addresses T2, RIFIN (PF3D7_1040300) V2 domain, as crystallised with MGD21 LAIR1 (Plasmodium falciparum 3D7) (UniProt Q8IJ06).
T2 sequence: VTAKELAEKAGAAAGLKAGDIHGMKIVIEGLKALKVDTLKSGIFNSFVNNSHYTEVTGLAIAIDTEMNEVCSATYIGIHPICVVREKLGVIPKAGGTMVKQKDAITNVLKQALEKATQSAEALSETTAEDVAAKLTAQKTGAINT
The description is as above.

Consider “LAIR1 ectodomain from antibody MGD21, as crystallised (human) (domain or fragment)”, for which the binding entry in experiment [1] and in experiment [2] was “binds” each time.
